Data published in the supplement of paper PMC10849652.
This is one part of the list.

Chains of the proteins cited; added tags and fusions are not shown. Lines headed by an entry give the natural chain unless they say otherwise; changes in a name come on top.
UniProt Q9UKJ5: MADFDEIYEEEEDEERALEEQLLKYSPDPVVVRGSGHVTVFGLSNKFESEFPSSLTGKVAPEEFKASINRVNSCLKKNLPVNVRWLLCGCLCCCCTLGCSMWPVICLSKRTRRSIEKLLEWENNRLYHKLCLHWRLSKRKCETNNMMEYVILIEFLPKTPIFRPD
UniProt O43633: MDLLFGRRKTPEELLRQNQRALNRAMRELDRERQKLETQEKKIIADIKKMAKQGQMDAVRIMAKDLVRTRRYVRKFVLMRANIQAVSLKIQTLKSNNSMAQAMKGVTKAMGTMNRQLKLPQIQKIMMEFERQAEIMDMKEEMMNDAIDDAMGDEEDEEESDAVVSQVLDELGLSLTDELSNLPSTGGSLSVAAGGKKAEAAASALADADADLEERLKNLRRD
UniProt Q8TAP6: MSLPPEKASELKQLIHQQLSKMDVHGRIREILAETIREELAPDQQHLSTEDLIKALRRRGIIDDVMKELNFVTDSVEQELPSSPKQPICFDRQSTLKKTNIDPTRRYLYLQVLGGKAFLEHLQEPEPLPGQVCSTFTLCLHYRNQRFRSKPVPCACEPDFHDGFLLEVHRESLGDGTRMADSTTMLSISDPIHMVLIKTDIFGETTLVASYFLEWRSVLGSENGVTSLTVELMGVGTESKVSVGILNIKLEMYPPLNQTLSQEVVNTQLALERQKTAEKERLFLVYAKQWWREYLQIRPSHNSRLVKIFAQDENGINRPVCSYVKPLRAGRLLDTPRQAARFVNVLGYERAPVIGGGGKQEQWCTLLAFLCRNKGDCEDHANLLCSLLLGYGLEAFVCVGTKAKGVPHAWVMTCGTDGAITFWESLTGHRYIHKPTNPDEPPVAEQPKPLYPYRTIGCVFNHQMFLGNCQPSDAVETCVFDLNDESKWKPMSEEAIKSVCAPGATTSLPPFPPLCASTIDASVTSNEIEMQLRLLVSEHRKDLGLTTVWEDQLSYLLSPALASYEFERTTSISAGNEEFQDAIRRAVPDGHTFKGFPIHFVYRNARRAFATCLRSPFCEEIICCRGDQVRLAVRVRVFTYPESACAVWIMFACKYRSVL
UniProt P35790, whole entry, looked up: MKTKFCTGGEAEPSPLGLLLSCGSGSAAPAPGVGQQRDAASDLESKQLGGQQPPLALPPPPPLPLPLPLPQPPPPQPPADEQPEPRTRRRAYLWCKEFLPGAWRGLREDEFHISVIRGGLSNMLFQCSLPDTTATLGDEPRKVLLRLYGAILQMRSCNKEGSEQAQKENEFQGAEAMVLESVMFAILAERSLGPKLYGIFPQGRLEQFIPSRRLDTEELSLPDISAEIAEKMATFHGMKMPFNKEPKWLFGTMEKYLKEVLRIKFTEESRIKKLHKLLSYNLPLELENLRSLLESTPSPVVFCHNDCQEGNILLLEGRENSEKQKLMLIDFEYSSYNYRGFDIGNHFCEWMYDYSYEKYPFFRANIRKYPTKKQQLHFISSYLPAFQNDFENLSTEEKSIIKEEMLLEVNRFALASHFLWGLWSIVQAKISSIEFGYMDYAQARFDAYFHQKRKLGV
UniProt Q5VV42: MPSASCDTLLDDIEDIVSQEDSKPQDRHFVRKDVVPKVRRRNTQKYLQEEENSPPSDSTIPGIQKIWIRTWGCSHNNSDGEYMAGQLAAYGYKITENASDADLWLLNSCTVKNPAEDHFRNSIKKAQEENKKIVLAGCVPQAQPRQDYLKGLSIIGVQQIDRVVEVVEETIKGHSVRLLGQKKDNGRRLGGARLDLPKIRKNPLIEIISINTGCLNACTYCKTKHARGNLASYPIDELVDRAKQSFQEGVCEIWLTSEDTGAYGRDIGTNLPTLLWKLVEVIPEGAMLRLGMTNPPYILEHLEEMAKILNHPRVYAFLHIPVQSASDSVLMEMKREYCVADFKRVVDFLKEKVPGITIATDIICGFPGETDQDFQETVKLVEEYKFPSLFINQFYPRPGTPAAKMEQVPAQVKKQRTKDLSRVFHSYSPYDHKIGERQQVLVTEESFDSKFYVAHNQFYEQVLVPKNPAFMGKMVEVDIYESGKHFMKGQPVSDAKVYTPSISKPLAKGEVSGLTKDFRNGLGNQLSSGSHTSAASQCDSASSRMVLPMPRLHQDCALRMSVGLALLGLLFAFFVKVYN
UniProt Q9Y6A4: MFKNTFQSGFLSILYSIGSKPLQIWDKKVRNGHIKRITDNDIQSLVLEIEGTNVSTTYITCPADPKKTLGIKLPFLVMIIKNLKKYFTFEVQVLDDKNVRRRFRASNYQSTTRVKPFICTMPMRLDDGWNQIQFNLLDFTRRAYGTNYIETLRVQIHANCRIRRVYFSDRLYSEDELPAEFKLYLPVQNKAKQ
UniProt Q8TD26: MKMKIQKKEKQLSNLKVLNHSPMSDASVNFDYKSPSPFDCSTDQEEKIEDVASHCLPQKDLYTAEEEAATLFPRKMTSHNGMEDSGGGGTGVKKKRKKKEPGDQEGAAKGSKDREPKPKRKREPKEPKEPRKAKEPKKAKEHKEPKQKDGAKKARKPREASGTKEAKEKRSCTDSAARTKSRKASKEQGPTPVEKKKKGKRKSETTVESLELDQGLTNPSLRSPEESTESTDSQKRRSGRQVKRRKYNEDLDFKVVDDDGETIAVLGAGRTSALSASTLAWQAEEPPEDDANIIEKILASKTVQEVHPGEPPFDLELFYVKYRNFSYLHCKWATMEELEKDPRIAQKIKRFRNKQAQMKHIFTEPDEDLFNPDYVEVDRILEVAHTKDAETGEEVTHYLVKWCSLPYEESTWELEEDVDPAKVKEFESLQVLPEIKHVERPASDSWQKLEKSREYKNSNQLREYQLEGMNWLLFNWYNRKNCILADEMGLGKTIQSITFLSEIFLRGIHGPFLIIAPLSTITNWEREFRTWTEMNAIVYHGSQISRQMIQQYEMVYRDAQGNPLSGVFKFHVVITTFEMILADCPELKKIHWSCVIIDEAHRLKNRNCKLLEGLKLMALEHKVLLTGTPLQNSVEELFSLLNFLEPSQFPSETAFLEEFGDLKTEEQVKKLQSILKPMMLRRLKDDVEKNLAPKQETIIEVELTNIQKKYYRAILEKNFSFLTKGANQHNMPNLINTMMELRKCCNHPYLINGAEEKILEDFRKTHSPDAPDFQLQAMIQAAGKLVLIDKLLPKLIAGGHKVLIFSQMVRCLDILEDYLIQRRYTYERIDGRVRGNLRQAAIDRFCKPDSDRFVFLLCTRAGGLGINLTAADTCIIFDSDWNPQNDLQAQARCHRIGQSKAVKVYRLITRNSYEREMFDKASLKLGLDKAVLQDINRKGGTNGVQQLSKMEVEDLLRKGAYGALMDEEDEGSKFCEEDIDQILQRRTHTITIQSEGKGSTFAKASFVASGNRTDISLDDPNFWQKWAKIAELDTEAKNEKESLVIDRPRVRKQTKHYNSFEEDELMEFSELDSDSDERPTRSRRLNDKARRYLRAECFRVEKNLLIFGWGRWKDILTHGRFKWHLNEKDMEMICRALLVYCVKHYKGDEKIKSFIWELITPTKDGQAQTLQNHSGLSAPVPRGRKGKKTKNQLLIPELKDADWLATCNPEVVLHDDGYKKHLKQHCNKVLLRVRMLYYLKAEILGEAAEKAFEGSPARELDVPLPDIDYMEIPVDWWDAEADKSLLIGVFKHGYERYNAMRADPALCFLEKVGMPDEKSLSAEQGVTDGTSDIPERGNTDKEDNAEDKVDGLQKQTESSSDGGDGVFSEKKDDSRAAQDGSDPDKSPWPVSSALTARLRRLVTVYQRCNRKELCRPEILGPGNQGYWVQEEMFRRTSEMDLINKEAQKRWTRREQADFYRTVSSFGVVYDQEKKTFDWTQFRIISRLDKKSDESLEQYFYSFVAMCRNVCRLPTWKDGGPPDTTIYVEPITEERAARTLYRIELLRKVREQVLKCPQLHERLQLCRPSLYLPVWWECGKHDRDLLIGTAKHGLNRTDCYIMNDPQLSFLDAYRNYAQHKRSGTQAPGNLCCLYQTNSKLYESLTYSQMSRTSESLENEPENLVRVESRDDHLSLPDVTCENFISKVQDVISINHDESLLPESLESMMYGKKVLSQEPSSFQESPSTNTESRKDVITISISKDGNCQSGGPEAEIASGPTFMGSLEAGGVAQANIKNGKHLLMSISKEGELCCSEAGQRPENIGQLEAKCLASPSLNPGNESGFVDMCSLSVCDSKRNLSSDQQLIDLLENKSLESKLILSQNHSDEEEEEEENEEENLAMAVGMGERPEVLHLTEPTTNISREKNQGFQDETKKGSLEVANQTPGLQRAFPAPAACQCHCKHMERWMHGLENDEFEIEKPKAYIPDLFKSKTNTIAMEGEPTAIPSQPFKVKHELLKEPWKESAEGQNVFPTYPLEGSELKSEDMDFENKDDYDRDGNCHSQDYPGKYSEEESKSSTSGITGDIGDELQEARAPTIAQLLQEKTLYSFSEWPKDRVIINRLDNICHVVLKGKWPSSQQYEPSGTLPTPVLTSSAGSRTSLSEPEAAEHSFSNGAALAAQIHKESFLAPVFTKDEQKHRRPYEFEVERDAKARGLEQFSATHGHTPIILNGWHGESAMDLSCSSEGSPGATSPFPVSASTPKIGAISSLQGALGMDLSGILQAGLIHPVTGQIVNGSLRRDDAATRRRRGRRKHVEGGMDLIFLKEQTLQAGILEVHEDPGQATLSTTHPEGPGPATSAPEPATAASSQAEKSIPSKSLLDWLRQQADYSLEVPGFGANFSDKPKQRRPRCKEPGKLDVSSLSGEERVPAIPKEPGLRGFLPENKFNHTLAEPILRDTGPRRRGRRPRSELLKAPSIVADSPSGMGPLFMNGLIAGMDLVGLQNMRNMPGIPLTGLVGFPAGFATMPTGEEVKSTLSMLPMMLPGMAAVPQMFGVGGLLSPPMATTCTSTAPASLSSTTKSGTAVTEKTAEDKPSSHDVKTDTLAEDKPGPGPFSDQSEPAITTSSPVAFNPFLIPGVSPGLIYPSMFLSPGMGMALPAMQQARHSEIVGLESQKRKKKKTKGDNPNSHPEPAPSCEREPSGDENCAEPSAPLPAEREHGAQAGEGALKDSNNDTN
UniProt Q9BY43: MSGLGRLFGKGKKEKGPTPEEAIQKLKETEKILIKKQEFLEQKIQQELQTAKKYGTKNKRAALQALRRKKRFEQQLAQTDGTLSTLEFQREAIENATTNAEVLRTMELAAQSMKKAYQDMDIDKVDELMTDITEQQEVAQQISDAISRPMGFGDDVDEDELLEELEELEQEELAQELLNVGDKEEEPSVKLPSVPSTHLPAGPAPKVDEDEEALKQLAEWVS
UniProt Q9H444: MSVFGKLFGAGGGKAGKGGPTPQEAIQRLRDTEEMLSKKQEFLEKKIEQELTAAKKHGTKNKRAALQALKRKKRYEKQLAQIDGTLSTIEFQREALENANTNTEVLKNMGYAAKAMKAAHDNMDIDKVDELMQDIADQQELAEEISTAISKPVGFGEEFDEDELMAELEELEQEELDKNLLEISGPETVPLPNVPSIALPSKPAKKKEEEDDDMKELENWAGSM
UniProt Q9Y3E7, whole entry, looked up: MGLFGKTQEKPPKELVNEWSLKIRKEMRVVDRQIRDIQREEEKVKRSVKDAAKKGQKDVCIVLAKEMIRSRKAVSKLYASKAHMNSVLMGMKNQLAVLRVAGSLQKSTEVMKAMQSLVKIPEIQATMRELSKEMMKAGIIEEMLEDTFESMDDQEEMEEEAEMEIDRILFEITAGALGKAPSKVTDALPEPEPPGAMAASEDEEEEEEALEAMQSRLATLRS
UniProt P57076: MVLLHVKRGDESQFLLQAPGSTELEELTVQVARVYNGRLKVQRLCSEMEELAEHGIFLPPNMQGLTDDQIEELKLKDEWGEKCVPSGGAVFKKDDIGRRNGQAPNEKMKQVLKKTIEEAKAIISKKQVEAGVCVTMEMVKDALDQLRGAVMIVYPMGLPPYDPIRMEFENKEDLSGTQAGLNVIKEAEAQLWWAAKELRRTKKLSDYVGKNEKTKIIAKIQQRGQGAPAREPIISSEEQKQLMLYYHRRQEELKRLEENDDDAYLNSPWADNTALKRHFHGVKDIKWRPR
UniProt Q8WUX2: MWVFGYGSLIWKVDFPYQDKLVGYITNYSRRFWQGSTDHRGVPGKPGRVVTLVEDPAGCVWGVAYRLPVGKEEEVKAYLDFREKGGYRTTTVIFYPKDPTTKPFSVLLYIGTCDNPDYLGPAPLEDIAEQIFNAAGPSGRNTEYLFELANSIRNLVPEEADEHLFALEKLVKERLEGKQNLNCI
UniProt O15182: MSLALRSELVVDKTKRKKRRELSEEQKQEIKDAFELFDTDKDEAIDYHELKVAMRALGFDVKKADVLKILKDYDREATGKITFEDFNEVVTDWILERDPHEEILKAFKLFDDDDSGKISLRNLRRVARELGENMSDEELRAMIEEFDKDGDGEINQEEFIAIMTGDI
UniProt Q9Y281, whole entry, looked up: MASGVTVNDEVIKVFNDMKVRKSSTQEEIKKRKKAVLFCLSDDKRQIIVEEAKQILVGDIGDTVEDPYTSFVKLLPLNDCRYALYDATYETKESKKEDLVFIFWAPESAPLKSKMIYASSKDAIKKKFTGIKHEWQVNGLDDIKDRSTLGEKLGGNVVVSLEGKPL

Compound: FC(F)(F)c1ccc(/C=C/c2nc(COc3ccc(CCCCn4ccnn4)cc3)co2)cc1 [mubritinib]
Assay: log2 fold change, soluble protein after heating vs DMSO (PISA); higher = thermal stabilisation; K562 cells, 10 uM, 30 min; active = over 0.2 and 3.5 SD of the protein, either way, in both replicates (recomputed)
Procedure, shortened: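 K562 cells at 2×10^6 cells/mL were given 10 μM compound for 30 min. Aliquots then went through 3 min of heating across 48°C-58°C, were pooled, and were extracted in PBS with 0.5% NP-40 at 4°C, and the supernatant after 21,000xg for 90 min was quantified by TMTpro 16plex LC-MS/MS with channel sums equalised. Thermal stability relative to control samples, from duplicates, is given as log2 fold change.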

Target | log2 fold change
CHIC2 (UniProt Q9UKJ5) | inactive: 0.045
CFDP1 (UniProt Q9UEE9) | inactive: 0.033
CHMP2A (UniProt O43633) | inactive: 0.066
CHD4 isoform 2 (UniProt Q14839) | inactive: -0.06
CEP76 (UniProt Q8TAP6) | inactive: 0.045
CDK5RAP3 isoform 4 (UniProt Q96JB5) | inactive: 0.083
CHKA (UniProt P35790) | inactive: -0.024
CDC73 (UniProt Q6P1J9) | inactive: -0.139
CHCHD3 (UniProt Q9NX63) | inactive: 0.024
CDKAL1 (UniProt Q5VV42) | inactive: 0.057
CDK13 (UniProt Q14004) | inactive: 0.023
CFAP20 (UniProt Q9Y6A4) | inactive: -0.109
CHD6 (UniProt Q8TD26) | inactive: -0.396
CHMP4A isoform 2 (UniProt Q9BY43) | inactive: 0.06
CHMP4B (UniProt Q9H444) | inactive: 0.051
CDK11B (UniProt P21127) | inactive: 0.085
CHMP3 (UniProt Q9Y3E7) | inactive: 0.118
CFAP298 (UniProt P57076) | inactive: -0.029
CETN2 (UniProt P41208) | inactive: 0.036
CHAC2 (UniProt Q8WUX2) | inactive: 0.045
CETN3 (UniProt O15182) | inactive: 0.112
CHD3 isoform 3 (UniProt Q12873) | inactive: -0.058
CFL2 (UniProt Q9Y281) | inactive: 0.03

Quoted at random: two entries already listed.
Target | log2 fold change
CHKA (UniProt P35790) | inactive: -0.024
CDKAL1 (UniProt Q5VV42) | inactive: 0.057
